Test results reported in patent US20040249128A1, “Molecules for disease detection and treatment” (priority 2001, published 2004).
At least one structure is not confirmed: it was looked up by name or label, or the drawing left a doubt.

Legend:
[1] = system: human umbilical vein endothelial cells (HVECs); details: HVECs treated with TNF-α; cited from earlier work
C3A cells = experiment: Microarray expression analysis of C3A cells treated with steroids versus untreated C3A cells; type: cell-based, human

Row | Structure (SMILES) | TNF-α-induced increase in MCP-1 secretions [1] | mRNA levels (MCP-1) [1] | SEQ ID NO:90 expression (C3A cells; 1 μM bude for one to three hours) | SEQ ID NO:90 expression (C3A cells; 10 μM bude for one to three hours) | SEQ ID NO:90 expression (C3A cells; 100 μM bude for one to three hours)
1 | Cc1c(C)c2c(c(C)c1O)CCC(C)(COc1ccc(CC3SC(=O)NC3=O)cc1)O2 (centres unmarked) [Troglitazone] | significantly inhibited | decreased |  |  | 
2 | CCCC1O[C@@H]2C[C@H]3[C@@H]4CCC5=CC(=O)C=C[C@]5(C)[C@H]4[C@@H](O)C[C@]3(C)[C@]2(C(=O)CO)O1 (some centres unmarked) [bude, budesonide] |  |  | decreased by at least two-fold | decreased by at least two-fold | decreased by at least two-fold
